These are yes or no findings as the source states them, for the method shown. A result given as binding can be weak or reduced; the word gives no strength.
Assays:
GST-tagged PD-L1 (human) [1] = biological target: GST-tagged PD-L1 (human) (UniProt Q9NZQ7); experiment: pull-down; GST-PD-L1 and His-tagged TMUB1 from E. coli incubated with HUWE1-Flag obtained from HEK-293T cells; GST magnetic beads; immunoblot (Supplementary Fig. 4p); both purified
GST-tagged PD-L1 (human) [2] = biological target: GST-tagged PD-L1 (human) (UniProt Q9NZQ7); experiment: pull-down; GST pull-down of recombinant PD-L1-GST and TMUB1-His with or without PTPR; immunoblot (Fig. 6h); both purified

Chains of the proteins cited; added tags and fusions are not shown. Lines headed by an entry give the natural chain unless they say otherwise; changes in a name come on top.
UniProt Q9NZQ7: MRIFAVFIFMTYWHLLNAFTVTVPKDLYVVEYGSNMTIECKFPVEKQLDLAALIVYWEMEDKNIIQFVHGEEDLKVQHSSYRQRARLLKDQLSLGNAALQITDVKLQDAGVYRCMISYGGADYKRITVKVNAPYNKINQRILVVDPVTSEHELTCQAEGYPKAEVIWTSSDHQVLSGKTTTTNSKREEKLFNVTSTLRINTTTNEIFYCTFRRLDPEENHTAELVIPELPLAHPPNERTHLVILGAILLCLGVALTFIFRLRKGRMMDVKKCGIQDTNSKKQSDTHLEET
UniProt Q7Z6Z7: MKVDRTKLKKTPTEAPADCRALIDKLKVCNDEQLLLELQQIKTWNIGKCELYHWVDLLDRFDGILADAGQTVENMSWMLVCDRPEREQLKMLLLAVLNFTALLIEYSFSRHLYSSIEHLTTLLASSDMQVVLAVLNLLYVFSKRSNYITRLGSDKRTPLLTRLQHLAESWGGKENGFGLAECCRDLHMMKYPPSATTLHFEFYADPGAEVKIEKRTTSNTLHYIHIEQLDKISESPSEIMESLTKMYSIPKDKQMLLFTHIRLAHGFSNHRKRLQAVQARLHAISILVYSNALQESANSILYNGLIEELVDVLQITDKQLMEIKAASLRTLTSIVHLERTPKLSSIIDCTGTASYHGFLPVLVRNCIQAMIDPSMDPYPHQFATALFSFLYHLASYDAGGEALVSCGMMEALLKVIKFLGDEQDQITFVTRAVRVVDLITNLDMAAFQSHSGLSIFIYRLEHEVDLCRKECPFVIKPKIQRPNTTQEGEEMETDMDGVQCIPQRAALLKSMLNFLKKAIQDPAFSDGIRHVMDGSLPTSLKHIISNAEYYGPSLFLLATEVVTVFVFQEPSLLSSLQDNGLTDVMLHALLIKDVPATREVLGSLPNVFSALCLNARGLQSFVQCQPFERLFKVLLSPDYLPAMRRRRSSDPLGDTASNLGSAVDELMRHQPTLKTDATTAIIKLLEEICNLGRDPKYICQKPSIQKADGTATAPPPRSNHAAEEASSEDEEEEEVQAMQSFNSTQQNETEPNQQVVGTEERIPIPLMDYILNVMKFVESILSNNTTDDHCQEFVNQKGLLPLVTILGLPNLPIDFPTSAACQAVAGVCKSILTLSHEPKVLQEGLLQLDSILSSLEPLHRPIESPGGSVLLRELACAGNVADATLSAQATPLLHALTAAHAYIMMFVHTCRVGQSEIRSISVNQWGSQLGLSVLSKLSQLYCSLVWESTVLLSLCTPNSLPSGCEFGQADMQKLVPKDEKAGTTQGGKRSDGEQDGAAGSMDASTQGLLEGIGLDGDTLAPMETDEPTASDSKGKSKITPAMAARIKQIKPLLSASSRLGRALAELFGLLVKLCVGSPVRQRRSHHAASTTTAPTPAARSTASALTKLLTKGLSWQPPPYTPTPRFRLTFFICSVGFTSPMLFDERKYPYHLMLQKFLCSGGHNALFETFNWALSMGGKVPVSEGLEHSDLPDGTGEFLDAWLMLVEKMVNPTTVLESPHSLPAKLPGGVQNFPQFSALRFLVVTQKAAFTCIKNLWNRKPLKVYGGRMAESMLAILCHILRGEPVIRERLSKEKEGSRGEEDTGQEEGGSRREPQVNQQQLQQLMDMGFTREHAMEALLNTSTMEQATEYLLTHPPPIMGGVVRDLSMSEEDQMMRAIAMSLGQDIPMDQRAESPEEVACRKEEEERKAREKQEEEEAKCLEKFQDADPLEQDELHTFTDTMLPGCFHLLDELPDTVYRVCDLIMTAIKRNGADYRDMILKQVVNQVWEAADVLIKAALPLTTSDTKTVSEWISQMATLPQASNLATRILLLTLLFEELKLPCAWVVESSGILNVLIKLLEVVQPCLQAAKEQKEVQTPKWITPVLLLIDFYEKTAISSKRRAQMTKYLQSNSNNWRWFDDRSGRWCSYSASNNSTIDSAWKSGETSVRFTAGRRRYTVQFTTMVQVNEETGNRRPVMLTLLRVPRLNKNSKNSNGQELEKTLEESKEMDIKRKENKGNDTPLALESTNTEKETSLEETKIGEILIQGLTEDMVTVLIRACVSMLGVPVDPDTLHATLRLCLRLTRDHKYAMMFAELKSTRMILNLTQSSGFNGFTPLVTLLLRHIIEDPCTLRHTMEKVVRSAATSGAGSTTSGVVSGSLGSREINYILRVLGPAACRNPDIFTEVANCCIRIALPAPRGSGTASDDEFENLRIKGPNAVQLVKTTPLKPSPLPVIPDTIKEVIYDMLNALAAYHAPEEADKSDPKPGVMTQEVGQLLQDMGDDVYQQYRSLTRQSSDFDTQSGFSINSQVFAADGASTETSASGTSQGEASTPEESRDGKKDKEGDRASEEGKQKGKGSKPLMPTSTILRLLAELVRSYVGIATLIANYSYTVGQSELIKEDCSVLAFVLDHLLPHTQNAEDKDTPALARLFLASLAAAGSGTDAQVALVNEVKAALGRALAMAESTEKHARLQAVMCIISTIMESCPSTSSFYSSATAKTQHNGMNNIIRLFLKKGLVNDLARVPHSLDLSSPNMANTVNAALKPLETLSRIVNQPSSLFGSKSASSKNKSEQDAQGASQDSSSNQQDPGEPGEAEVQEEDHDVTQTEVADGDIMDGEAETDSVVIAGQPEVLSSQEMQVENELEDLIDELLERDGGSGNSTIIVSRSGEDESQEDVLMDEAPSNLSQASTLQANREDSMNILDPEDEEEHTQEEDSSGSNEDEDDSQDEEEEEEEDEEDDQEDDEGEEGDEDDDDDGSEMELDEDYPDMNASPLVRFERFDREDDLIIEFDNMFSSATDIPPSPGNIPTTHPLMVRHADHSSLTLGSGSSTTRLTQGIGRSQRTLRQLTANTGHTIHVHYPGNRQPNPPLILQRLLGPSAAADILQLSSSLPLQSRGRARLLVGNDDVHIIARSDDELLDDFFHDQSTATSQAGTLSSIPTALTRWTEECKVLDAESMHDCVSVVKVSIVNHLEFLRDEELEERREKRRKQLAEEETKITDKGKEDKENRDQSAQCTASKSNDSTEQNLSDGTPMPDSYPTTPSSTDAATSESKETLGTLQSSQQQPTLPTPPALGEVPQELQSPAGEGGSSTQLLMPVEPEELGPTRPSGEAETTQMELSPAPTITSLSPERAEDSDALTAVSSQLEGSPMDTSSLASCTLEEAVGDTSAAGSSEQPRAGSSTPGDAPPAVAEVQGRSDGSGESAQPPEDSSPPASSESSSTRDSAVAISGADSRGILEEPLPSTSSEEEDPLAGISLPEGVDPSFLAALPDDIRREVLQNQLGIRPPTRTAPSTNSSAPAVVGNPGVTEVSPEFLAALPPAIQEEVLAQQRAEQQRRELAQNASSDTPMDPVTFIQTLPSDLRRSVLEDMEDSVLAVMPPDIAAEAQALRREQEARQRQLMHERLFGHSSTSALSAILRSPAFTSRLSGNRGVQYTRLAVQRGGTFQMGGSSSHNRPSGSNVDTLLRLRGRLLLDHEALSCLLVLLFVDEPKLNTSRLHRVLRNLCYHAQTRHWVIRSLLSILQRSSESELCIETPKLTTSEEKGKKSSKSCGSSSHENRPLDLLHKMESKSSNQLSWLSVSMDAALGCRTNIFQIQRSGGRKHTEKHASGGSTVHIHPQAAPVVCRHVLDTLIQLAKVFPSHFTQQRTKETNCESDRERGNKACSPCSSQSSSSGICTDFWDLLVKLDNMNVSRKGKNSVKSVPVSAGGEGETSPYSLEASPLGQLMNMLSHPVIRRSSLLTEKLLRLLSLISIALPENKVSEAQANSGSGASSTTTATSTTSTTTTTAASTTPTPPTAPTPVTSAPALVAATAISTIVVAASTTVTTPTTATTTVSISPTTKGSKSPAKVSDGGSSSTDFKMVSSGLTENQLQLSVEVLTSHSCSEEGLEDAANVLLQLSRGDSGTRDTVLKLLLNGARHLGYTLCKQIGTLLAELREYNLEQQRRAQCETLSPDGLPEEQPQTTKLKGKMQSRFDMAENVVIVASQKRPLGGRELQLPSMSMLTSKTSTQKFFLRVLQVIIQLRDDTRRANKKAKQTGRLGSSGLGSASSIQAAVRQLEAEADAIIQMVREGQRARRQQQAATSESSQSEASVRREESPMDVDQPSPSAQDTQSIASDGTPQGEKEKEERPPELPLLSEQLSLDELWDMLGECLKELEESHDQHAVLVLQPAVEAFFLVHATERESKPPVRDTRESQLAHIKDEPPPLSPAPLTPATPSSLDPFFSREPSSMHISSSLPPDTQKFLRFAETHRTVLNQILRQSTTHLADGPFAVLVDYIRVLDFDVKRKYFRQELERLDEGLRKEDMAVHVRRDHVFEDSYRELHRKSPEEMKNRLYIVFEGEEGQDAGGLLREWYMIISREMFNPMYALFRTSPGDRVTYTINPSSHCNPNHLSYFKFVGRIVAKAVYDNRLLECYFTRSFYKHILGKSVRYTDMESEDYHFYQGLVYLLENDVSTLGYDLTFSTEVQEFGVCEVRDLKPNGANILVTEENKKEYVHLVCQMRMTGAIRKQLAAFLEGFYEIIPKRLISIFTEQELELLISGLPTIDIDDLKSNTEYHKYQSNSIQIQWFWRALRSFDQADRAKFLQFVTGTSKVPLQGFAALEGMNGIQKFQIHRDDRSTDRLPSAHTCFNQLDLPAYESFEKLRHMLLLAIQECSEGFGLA
UniProt Q9BVT8: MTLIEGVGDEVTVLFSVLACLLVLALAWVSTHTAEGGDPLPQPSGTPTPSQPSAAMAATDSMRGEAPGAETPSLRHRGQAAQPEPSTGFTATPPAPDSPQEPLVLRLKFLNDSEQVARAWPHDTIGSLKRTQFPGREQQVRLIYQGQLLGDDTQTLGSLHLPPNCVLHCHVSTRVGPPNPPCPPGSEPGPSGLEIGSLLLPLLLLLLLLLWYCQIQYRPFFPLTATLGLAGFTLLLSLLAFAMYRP

binding (GST-tagged PD-L1 (human) [1]) | binding (GST-tagged PD-L1 (human) [2]) | Molecule
binds | – | HUWE1-Flag (from UniProt Q7Z6Z7 1-4374) (enzyme)
– | binds | GFTATPPAPDSPQEP (peptide, UniProt Q9BVT8 88-102, FITC (position not given)) [PTPR (Peptide of TMUB1 PD-L1 Regulatory domain)]

Source: PMC9663433
